{"source": "PubChem BioAssay AID652259 (Drosophila RNAi Screening Center, 2013)", "assay": "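Identify new Wingless signalling regulators in fly cells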 (primary screen)", "cell system": "Drosophila clone 8 imaginal disc epithelial cells", "knock-down reagent": "long dsRNA against Drosophila genes", "challenge": "pathway stimulated by co-transfected Wingless expression plasmid", "detection": "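Dual luciferase reads per well after Wingless plasmid stimulation: reporter firefly light and Renilla control light; activity is firefly divided by Renilla, a ratio not deposited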", "direction": "firefly reporter light: higher = more Wg reporter light, before normalisation; Renilla control light: higher = more transfected or surviving cells", "hit rule": "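Strong candidates differ from their plate mean by at least two out of four per-plate statistical tests; weak candidates meet just one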", "calls": "active = candidate regulator (raises or lowers reporter); inactive = not a candidate", "note": "The deposit covers about 22,000 reagents; shown is a random part of those that have a named target and a result. In the full data, 233 (1.1%) are marked active. 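Light values are raw, unnormalised plate reads; the ratio scores behind the reporter calls were not deposited.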 Unmarked entries are inactive. The record does not give: the amount of reagent, the time to read-out, the dose of the treatment."}
{"gene knocked down":"CG33108","DRSC id":"DRSC21613","firefly reporter light, replicate 1":7.40e5,"firefly reporter light, replicate 2":6.49e5,"Renilla control light, replicate 1":2.88e5,"Renilla control light, replicate 2":2.91e5}
{"gene knocked down":"DNAlig4","DRSC id":"DRSC19436","firefly reporter light, replicate 1":16797,"Renilla control light, replicate 1":7796}
{"gene knocked down":"DJ-1alpha","DRSC id":"DRSC07005","firefly reporter light, replicate 1":6024,"Renilla control light, replicate 1":2160}
{"gene knocked down":"Muc18B","DRSC id":"DRSC20064","firefly reporter light, replicate 1":20925,"Renilla control light, replicate 1":12763}
{"gene knocked down":"Muc18B","DRSC id":"DRSC21644","firefly reporter light, replicate 1":5.99e5,"firefly reporter light, replicate 2":5.87e5,"Renilla control light, replicate 1":2.34e5,"Renilla control light, replicate 2":2.32e5}
{"gene knocked down":"Tektin-A","DRSC id":"DRSC01921","firefly reporter light, replicate 1":6017,"Renilla control light, replicate 1":2058}
{"gene knocked down":"CG45067","DRSC id":"DRSC08414","firefly reporter light, replicate 1":6186,"Renilla control light, replicate 1":2716}
{"gene knocked down":"wntD","DRSC id":"DRSC16423","firefly reporter light, replicate 1":11989,"Renilla control light, replicate 1":2473}
{"gene knocked down":"CG8170","DRSC id":"DRSC07087","firefly reporter light, replicate 1":2944,"firefly reporter light, replicate 2":5545,"Renilla control light, replicate 1":1046,"Renilla control light, replicate 2":2952}
{"gene knocked down":"CG34181","DRSC id":"DRSC01071","firefly reporter light, replicate 1":16141,"Renilla control light, replicate 1":10693}
{"gene knocked down":"Oscillin","DRSC id":"DRSC03001","firefly reporter light, replicate 1":6197,"firefly reporter light, replicate 2":5.75e5,"Renilla control light, replicate 1":2445,"Renilla control light, replicate 2":2.20e5}
{"gene knocked down":"CG7179","DRSC id":"DRSC03020","firefly reporter light, replicate 1":4322,"firefly reporter light, replicate 2":4038,"Renilla control light, replicate 1":1305,"Renilla control light, replicate 2":1629}
{"gene knocked down":"Sptz","DRSC id":"DRSC15758","firefly reporter light, replicate 1":15112,"Renilla control light, replicate 1":3419}
{"gene knocked down":"L2HGDH","DRSC id":"DRSC02082","firefly reporter light, replicate 1":9447,"Renilla control light, replicate 1":2646}
{"gene knocked down":"CR43142","DRSC id":"DRSC00962","firefly reporter light, replicate 1":19776,"Renilla control light, replicate 1":8992}
{"gene knocked down":"STUB1","DRSC id":"DRSC03282","firefly reporter light, replicate 1":2685,"firefly reporter light, replicate 2":6592,"Renilla control light, replicate 1":1140,"Renilla control light, replicate 2":2028}
{"gene knocked down":"eIF6","DRSC id":"DRSC04674","firefly reporter light, replicate 1":14547,"Renilla control light, replicate 1":3427}
{"gene knocked down":"wal","DRSC id":"DRSC07717","firefly reporter light, replicate 1":9763,"Renilla control light, replicate 1":2291}
{"gene knocked down":"Tsp42Ed","DRSC id":"DRSC05940","firefly reporter light, replicate 1":2445,"firefly reporter light, replicate 2":5993,"Renilla control light, replicate 1":875,"Renilla control light, replicate 2":3100}
{"gene knocked down":"kek3","DRSC id":"DRSC03553","firefly reporter light, replicate 1":3930,"firefly reporter light, replicate 2":8080,"Renilla control light, replicate 1":1533,"Renilla control light, replicate 2":4390}
{"gene knocked down":"kek3","DRSC id":"DRSC22830","firefly reporter light, replicate 1":5.56e5,"firefly reporter light, replicate 2":5.81e5,"Renilla control light, replicate 1":2.09e5,"Renilla control light, replicate 2":2.47e5}
{"gene knocked down":"CG11771","DRSC id":"DRSC14379","firefly reporter light, replicate 1":2884,"firefly reporter light, replicate 2":6152,"Renilla control light, replicate 1":1530,"Renilla control light, replicate 2":1616}
{"gene knocked down":"rudhira","DRSC id":"DRSC19821","firefly reporter light, replicate 1":3207,"firefly reporter light, replicate 2":7569,"Renilla control light, replicate 1":451,"Renilla control light, replicate 2":937}
{"gene knocked down":"rudhira","DRSC id":"DRSC22111","firefly reporter light, replicate 1":8.16e5,"firefly reporter light, replicate 2":8.03e5,"Renilla control light, replicate 1":3.44e5,"Renilla control light, replicate 2":3.54e5}
{"gene knocked down":"CG13488","DRSC id":"DRSC04133","firefly reporter light, replicate 1":2098,"firefly reporter light, replicate 2":5900,"Renilla control light, replicate 1":732,"Renilla control light, replicate 2":3389}
{"gene knocked down":"Prat2","DRSC id":"DRSC09692","firefly reporter light, replicate 1":7015,"Renilla control light, replicate 1":3707}
{"gene knocked down":"CG11537","DRSC id":"DRSC08200","firefly reporter light, replicate 1":8071,"Renilla control light, replicate 1":1509}
{"gene knocked down":"CG17625","DRSC id":"DRSC15249","firefly reporter light, replicate 1":13851,"Renilla control light, replicate 1":11121}
{"gene knocked down":"Mos","DRSC id":"DRSC07258","firefly reporter light, replicate 1":3157,"Renilla control light, replicate 1":1321}
{"gene knocked down":"AsnRS-m","DRSC id":"DRSC07010","firefly reporter light, replicate 1":4685,"Renilla control light, replicate 1":1696}
{"gene knocked down":"Wdr82","DRSC id":"DRSC02595","firefly reporter light, replicate 1":23229,"Renilla control light, replicate 1":11297}
{"gene knocked down":"Wdr82","DRSC id":"DRSC21723","firefly reporter light, replicate 1":3.40e5,"firefly reporter light, replicate 2":3.69e5,"Renilla control light, replicate 1":1.54e5,"Renilla control light, replicate 2":1.42e5}

Single entries from the entries so far:
Value for rudhira [DRSC22111] under “firefly reporter light, replicate 2”: 8.03e5
Value of Wdr82 [DRSC02595] in “Renilla control light, replicate 1”: 11297
Result of CG13488 [DRSC04133] under “Renilla control light, replicate 1”: 732
